The nature of data set [1]: general procedure: Fmoc solid-phase peptide synthesis; Fmoc-preloaded resins; DIC/OxymaPure. The following applies: whole synthesis, UPLC-MS, scale of the general procedure 10 mg resin per well.
A short description of data set [2]: peptide made by a vendor (peptide synthesis; Fmoc-preloaded resins; DIC/OxymaPure). The following applies: whole synthesis, UPLC-MS, scale of the general procedure 10 mg resin per well.
Data set [3] has as its system PSG (PSD-95), residues G322 and G335. The following applies: double mutant cycle PSG, G322A, G335A, from stopped-flow Kd, SynGap from ITC Kd.

For some assays here: End groups of sequences in plain letters are not given here. Where only a bound is given, the exact number is not on record here.

YMEGLVPVGYTSLVL: the “crude LC-MS purity” value in data set [1] is 92%.

Turning to YQEQNKVLWIPASPL, the “crude LC-MS purity” value in data set [1] was determined as 94%.

On to YAELKRNTLYFSTDV, for which the “purity (crude or final not stated)” value in data set [2] is above 95%.

On to YPPSSPTLSVSSTSL, for which the “purity (crude or final not stated)” value in data set [2] is on record as above 95%.

Turning to YQPYFITNSKTEVTV, in data set [1], the “crude LC-MS purity” value amounted to 86%.

As for YMSHSSGMPLGATGL, the “crude LC-MS purity” value in data set [1] is given as 87%.

As to YLSGPYIWVPARERL, the “crude LC-MS purity” value in data set [1] is reported as 82%.

As to YVESLSSESTATSPV, the “crude LC-MS purity” value in data set [1] amounted to 90%.

With YGQRDLYSGLNQRRI, the “crude LC-MS purity” value in data set [1] was found to be 86%.

Turning to YDVVAVYPNAKVELV, in data set [1], the “crude LC-MS purity” value came out at 96%.

As to YEKAASREEPIEWEF, the “crude LC-MS purity” value in data set [1] is listed as 72%.

Regarding `CC(C)C[C@H](NC(=O)[C@@H](NC(=O)[C@H](CCCCN)NC(=O)[C@H](CCCCN)NC(=O)CNS(=O)(=O)c1cccc2c(N(C)C)cccc12)C(C)C)C(=O)N[C@@H](CC(=O)O)C(=O)N[C@H](C(=O)N[C@@H](CCCCN)C(=O)N[C@@H](CC(N)=O)C(=O)N[C@@H](Cc1ccc(O)cc1)C(=O)N[C@@H](CCCCN)C(=O)N[C@@H](CCC(N)=O)C(=O)N[C@H](C(=O)N[C@@H](CO)C(=O)N[C@H](C(=O)O)C(C)C)[C@@H](C)O)[C@@H](C)O` [15 AA CRIPT], the “Coupling free energy ΔΔΔGc (DDDGc)” value in data set [3] is listed as -0.12 kcal/mol.

With YDMRLQMNQTLPVQV, the “crude LC-MS purity” value in data set [1] is given as 87%.

Consider YGADIPYEDIIATEI, for which the “crude LC-MS purity” value in data set [1] amounted to 92%.

In the case of YLTGAPLATSDETSI, in data set [1], the “crude LC-MS purity” value was determined as 90%.

With YRTQMQQMHGRMVPV, the “crude LC-MS purity” value in data set [1] was found to be 77%.

Turning to YYETGSLSFAGDERI, the “crude LC-MS purity” value in data set [1] is 78%.

With YHKGEVVDVMVIGRL, the “crude LC-MS purity” value in data set [1] is recorded as 91%.

Take YSSPAQSVTPVQTVV: the “purity (crude or final not stated)” value in data set [2] is reported as above 95%.

Consider YVRLLQSDPSSASQF, for which the “crude LC-MS purity” value in data set [1] is given as 61%.

Take YESIEIYIPEAQTRL: the “crude LC-MS purity” value in data set [1] was determined as 86%.

As for YVMQDESFPASKIEL, the “crude LC-MS purity” value in data set [1] stood at 89%.

With YDVLKNMTDKAPPGV, the “crude LC-MS purity” value in data set [1] was 95%.

On to YQETLFVGNDQVSEI, for which, in data set [1], the “crude LC-MS purity” value stood at 76%.

For `CC(C)[C@H](NC(=O)[C@H](CCCNC(=N)N)NC(=O)[C@@H](NC(=O)[C@H](CCC(N)=O)NC(=O)[C@H](CCC(N)=O)NC(=O)[C@@H](NC(=O)[C@H](Cc1c[nH]c2ccccc12)NC(=O)[C@@H]1CCCN1C(=O)[C@@H]1CCCN1C(=O)[C@H](Cc1ccccc1)NC(=O)[C@H](CO)NC(=O)CNC(=O)[C@H](CCCNC(=N)N)NC(=O)[C@H](CCC(N)=O)NC(=O)[C@H](C)NS(=O)(=O)c1cccc2c(N(C)C)cccc12)C(C)C)[C@@H](C)O)C(=O)O` [15 AA SynGap], the “Coupling free energy ΔΔΔGc (DDDGc)” value in data set [3] is -0.18 kcal/mol.

Regarding YPSIVQALSLYDGLV, the “crude LC-MS purity” value in data set [1] was found to be 92%.

Turning to YDKPLSKKHAHSVNF, in data set [1], the “crude LC-MS purity” value was 90%.

Take YEPGTELSPTLPHQL: the “crude LC-MS purity” value in data set [1] is recorded as 97%.

In the case of YSRQHSKLLDFDDVL, the “purity (crude or final not stated)” value in data set [2] is above 95%.

Turning to YEPPEPKKSRRSVLL, the “crude LC-MS purity” value in data set [1] came to 98%.

With YYETSHYPASPDSWV, in data set [1], the “crude LC-MS purity” value is 81%.

Take YFTATEPQYQPGENL: the “crude LC-MS purity” value in data set [1] worked out at 98%.

In the case of YDSIEIYIPEAQTRL, the “crude LC-MS purity” value in data set [1] was 86%.

As to YHGGNLETREPTNTL, in data set [1], the “crude LC-MS purity” value came out at 96%.

On to YQARRGKKKSGSLVL, for which the “purity (crude or final not stated)” value in data set [2] is listed as above 95%.

On to YKEGYNVYGIESVKI, for which the “crude LC-MS purity” value in data set [1] turned out to be 89%.

For the compound YFTYHTSDGDALLLL, the “crude LC-MS purity” value in data set [1] was 67%.

Consider YDKRDSEEESESTAL, for which the “crude LC-MS purity” value in data set [1] is recorded as 97%.

Regarding YLFASLEAYSHIRGF, the “crude LC-MS purity” value in data set [1] was 72%.

Regarding YSSTSPQSTDKSSTV, the “crude LC-MS purity” value in data set [1] is listed as 94%.

As for YLADEVSASLAKQGL, the “crude LC-MS purity” value in data set [1] stood at 95%.

In the case of YPLVGQDIIDLQTEV, in data set [1], the “crude LC-MS purity” value amounted to 83%.

With YQSGPFIWIPSKEKL, the “crude LC-MS purity” value in data set [1] turned out to be 90%.

Regarding YRQPLPDSNPEESSV, the “crude LC-MS purity” value in data set [1] turned out to be 97%.

Take YEPSERHTEEALRKF: in data set [1], the “crude LC-MS purity” value is 83%.

Take YERAANREEALEWEF: the “crude LC-MS purity” value in data set [1] is on record as 73%.

YAVALIAYLSKNNHL: the “purity (crude or final not stated)” value in data set [2] is given as above 95%.

Take YLHGHRYSSGSRSLV: in data set [1], the “crude LC-MS purity” value amounted to 81%.

Consider YERLKQFVSQELVNL, for which the “purity (crude or final not stated)” value in data set [2] is above 95%.

Regarding YLFATLEAYSYIKGF, the “purity (crude or final not stated)” value in data set [2] is recorded as above 95%.

The values above are taken from PMC9490041 (iScience, 2022).
